No constants are given. Whether binding was seen depends on the method and setting. Binding seen in cells or lysates may run through a third protein. Some binding calls cover weakened binding; strength is not graded here.
Molecular target: Bunyamwera virus (BUNV) nucleoprotein (N) (Bunyamwera virus) (UniProt P16495)
Test: co-IP; BSR-T7/5 cells infected with wt BUNV or rBUNL4V5, labelled with [35S]methionine, lysed in non-denaturing RIPA buffer (50 mM Tris/HCl pH 7.4, 1 % Triton X-100, 300 mM NaCl, 5 mM EDTA); precipitated with anti-N or anti-V5 antibodies on Protein A-agarose; SDS-PAGE

Sequences of proteins named here, by UniProt entry; tags and fusion partners are left off.
UniProt P16495: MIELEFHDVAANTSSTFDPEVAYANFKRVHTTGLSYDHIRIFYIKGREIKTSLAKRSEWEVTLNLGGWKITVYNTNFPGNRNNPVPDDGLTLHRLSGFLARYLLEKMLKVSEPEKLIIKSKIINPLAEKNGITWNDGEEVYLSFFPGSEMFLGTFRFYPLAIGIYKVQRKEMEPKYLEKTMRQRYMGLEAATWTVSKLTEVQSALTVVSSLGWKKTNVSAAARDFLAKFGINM
UniProt P20470: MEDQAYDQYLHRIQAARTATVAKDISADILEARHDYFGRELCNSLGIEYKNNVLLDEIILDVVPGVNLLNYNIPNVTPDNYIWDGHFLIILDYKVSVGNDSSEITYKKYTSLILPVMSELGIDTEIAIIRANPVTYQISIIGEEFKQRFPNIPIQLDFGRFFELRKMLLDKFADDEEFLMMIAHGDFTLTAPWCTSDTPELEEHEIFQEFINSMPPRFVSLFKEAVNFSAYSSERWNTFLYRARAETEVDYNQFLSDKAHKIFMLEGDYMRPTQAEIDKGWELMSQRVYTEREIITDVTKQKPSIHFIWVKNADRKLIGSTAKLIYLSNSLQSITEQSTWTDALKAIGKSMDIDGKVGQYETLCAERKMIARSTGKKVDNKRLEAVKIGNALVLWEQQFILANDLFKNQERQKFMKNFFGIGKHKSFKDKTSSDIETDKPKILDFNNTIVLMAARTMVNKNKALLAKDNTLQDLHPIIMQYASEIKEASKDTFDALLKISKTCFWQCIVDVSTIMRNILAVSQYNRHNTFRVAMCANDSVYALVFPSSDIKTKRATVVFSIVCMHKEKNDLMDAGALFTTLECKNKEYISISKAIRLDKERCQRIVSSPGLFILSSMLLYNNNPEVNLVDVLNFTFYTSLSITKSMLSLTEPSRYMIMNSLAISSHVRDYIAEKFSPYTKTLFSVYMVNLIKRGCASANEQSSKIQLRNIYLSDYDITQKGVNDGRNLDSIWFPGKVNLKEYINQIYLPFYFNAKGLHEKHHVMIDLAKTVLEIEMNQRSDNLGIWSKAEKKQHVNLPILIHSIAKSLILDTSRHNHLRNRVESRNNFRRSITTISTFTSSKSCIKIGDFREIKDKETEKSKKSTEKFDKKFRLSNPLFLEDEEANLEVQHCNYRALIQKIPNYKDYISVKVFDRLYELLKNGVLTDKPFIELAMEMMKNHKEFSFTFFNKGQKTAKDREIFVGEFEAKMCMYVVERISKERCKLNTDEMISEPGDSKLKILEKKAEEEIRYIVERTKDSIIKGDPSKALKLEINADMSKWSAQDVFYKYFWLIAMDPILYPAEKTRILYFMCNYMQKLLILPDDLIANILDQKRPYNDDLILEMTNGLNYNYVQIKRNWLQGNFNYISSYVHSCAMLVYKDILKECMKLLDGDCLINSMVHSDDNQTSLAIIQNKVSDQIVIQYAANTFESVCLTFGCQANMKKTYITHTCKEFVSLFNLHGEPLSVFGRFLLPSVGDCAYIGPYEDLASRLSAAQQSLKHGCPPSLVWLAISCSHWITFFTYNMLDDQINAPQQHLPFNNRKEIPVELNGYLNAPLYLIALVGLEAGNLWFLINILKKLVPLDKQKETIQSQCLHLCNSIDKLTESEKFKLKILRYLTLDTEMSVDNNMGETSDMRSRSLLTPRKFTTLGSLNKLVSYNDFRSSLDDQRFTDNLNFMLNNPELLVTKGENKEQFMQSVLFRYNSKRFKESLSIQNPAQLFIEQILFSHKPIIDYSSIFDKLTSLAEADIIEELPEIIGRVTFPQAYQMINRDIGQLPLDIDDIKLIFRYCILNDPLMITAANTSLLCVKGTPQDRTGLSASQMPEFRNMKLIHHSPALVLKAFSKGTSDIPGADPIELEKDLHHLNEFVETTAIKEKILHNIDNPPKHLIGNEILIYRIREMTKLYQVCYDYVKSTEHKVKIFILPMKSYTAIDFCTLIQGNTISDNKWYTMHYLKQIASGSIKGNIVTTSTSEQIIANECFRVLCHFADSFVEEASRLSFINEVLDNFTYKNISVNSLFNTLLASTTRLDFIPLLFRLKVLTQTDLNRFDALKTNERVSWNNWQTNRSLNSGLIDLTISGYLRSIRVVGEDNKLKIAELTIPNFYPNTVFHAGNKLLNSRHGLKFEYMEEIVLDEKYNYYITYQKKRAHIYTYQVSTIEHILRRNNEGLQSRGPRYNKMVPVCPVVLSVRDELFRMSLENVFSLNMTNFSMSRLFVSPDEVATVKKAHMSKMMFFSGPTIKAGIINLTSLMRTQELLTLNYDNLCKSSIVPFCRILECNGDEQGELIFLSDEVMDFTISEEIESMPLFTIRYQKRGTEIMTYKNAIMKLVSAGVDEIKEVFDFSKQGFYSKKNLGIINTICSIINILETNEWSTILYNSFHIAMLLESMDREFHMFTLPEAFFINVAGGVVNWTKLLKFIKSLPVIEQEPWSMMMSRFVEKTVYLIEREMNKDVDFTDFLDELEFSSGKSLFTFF

Bunyamwera virus (BUNV) L protein, wild type (from UniProt P20470 1-2238)
binding: binds

From paper PMC2885054
